In all, about 300,000 compounds went through this assay and about 4,000 (1.3%) were called active. Inconclusive means that the source gave no clear call. Such entries were picked first, then a sample of the others.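 The calls were made as follows: active = mean replicate score, as percent of positive control median, at least 50; inconclusive = mean below 50 but one replicate at or above 50; inactive = mean and every replicate below 50.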
Experiment: kanamycin survival loss of SKKanGAS strain – BacTiter-Glo luminescence, streptokinase expression inhibitor project, primary screen (AID 1662);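 also: strain carries kanamycin resistance gene driven by streptokinase promoter and grows in 40 µg/ml kanamycin; loss of luminescence reflects streptokinase promoter inhibition or plain growth inhibition; 0% = median of DMSO wells and 100% = positive control at its reference dose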
Conditions: S. pyogenes SKKanGAS, kanamycin growth, 6 h, at 7.5 µM, active compounds read high

SMILES	inhibition
COc1ccc(OC)c(/C=N/NC(=O)c2[nH]ncc2Br)c1	inactive: -2.16%
Cc1ccc(NNC(=O)C2CCC2)cc1C	inconclusive: 36.4%
CCOc1cccc(/C=C/c2ccc3cccc(O)c3n2)c1OC	active: 97.7%
CCOc1ccc(C)cc1S(=O)(=O)NC1CCCCCC1	inconclusive: 39.9%
NNC(=O)/C(=N/Nc1ccccc1)S(=O)(=O)c1ccc(Cl)cc1	active: 73.6%
CC(=O)OCC1(C)CN(c2ccccc2)N(C(=O)c2ccc(C(C)(C)C)cc2)C1=O (stereo not drawn)	inactive: -3.42%
O=[N+]([O-])c1c(Nc2cccc(O)c2)cc(Cl)c2nonc12	inconclusive: 46.1%
Cc1ccc(NC(=S)NC(=O)c2ccc(F)cc2)cc1S(=O)(=O)Nc1cccc(Cl)c1	active: 70.2%
CCOc1ccc(CCNC(=O)CSC(=S)N2CCCC2)cc1OCC	inactive: -4.38%
Oc1c(Br)cc(Br)cc1/C=N/c1nc2c(s1)CCCC2	active: 50.6%
O=C(O)CCn1cc(/C=C/C(=O)c2ccc(Cl)cc2)c(-c2cccc(Br)c2)n1	active: 63.3%
O=C(CSC(=S)N1CCOCC1)c1cc(Br)cc(Br)c1O	inconclusive: 44.5%
COC(=O)c1ccc2nc(Nc3nc4c(F)cc(F)cc4s3)sc2c1	inconclusive: 47.8%
O=C(NCCCCc1ccccc1)Nc1ccc(F)cc1	inconclusive: 44.5%
Nc1ccc(-c2cn3cccnc3n2)cc1	inconclusive: 26.5%
COc1cccc(CN2CCN(Cc3cccc(Br)c3)CC2)c1OC	inactive: 3.82%
COc1ccc(C(=O)NCc2ccc(-c3nc4ccccc4s3)cc2)cc1	inactive: -14.6%
Cc1ccsc1C1C=C(c2cccc(Br)c2)Nc2ncnn21 (stereo not drawn)	inconclusive: 42.8%
Cc1cc(C(=O)Nc2nc(-c3ccccn3)cs2)ccc1[N+](=O)[O-]	active: 91.4%
O=C(CN1C(=O)S/C(=C\C=C\c2ccccc2)C1=O)Nc1ccccc1C(=O)O	active: 70.3%

SMILES	inhibition
CC1Cc2ccccc2N1Cc1ccc([N+](=O)[O-])cc1 (stereo not drawn)	inactive: -10.3%
CC1=C(C(=O)Nc2ccc(C(=O)N3CCN(c4ccccc4F)CC3)cc2)SCCO1	inconclusive: 49%
O=C(NC(=S)NC1C2CC3CC(C2)CC1C3)C12CC3CC(CC(C3)C1)C2 (stereo not drawn)	inactive: 3.06%
C/C(=N\NC(=O)c1cc(-c2cccc([N+](=O)[O-])c2)n[nH]1)c1ccccc1O	inconclusive: 46.2%
Cc1sc(NC(=O)CSc2nc(O)cc(=O)[nH]2)nc1-c1ccccc1	inconclusive: 39.8%
Nn1cnnc1N/N=C/c1cc(Br)cc(Br)c1O	inconclusive: 45.8%
CCc1ccc(-c2ccc3nnc(SCC(N)=O)n3n2)cc1	inconclusive: 40%
CC(C)(C)c1ccc(OCC(O)CS(=O)(=O)c2ccccn2)cc1 (stereo not drawn)	inconclusive: 34.6%
Cn1c(=O)c2c(nc(CN3CCC(C(N)=O)CC3)n2CCCc2ccccc2)n(C)c1=O	inactive: -3.81%
c1ccc(-c2onc(-c3ccco3)c2-c2ccc3[nH]ccc3c2)cc1	inconclusive: 46.9%
COC(=O)c1cn[nH]c1NC(=S)Nc1ccc(C)cc1Cl	inconclusive: 49.1%
O=C(N/N=C/c1ccc(F)cc1)c1ccccc1	inconclusive: 11.1%
Cc1cc(C)c(-c2cc(NC(=O)COC(=O)c3ccc(CO)cc3)n(-c3ccccc3)n2)cc1C	inconclusive: 42.1%
NS(=O)(=O)c1cccc(NC(=O)CSc2nnnn2-c2ccccc2)c1	inactive: -5.52%
OC(CN=c1sc2ccccc2n1CC(O)COc1ccccc1)COc1ccccc1 (stereo not drawn)	inconclusive: 49.3%
O=C(Nc1cccc(Cl)c1)Nc1cccc(Cl)c1	inactive: 16.6%
O=C(N/N=C/c1cc(Cl)cc([N+](=O)[O-])c1O)c1cc(-c2ccccn2)nc2ccccc12	inconclusive: 46.7%
Cc1ccc(-n2nnnc2SCC(=O)c2cc(C)n(-c3cc(C)on3)c2C)c(C)c1	inconclusive: 13.4%
Cc1cccc(-c2oc3ccccc3c2C#CCCCCO)c1	active: 75.7%
CCn1c(SC(C)C)nnc1-c1cc(-c2ccccc2)sc1N	inactive: 31.4%

SMILES	inhibition
O=C1/C(=C\c2cc(Br)cc(Br)c2O)SC(=S)N1Cc1ccccc1	active: 78.5%
O=C(Nc1nc2cc3c(cc2s1)OCCO3)c1ccc([N+](=O)[O-])o1	inconclusive: 48.6%
CCOc1ccc(NC(=O)c2ccc3c(=O)n(-c4ccc(OC)cc4OC)c(=S)[nH]c3c2)cc1	inconclusive: 35.7%
COc1ccc(C(=O)c2coc3c2C(=O)C(=O)c2ccccc2-3)cc1	active: 57.8%
COc1ccc(CCn2c(C)cc(C(=O)COC(=O)c3ccc(NC(=O)CC#N)cc3)c2C)cc1	inconclusive: 45.3%
CCN(CC)c1ccc(C=N/C(C#N)=C(\N)C#N)cc1	inconclusive: 43.1%
O=C(Cc1nc2ccccc2[nH]1)c1ccc(Br)cc1	inconclusive: 49%
COc1ccc2nc(NNC(=O)c3cc(=O)c4ccccc4o3)sc2c1	active: 49.8%
CN(C)S(=O)(=O)N1CCC(n2nccc2NC(=O)CCc2ccccc2)CC1	inconclusive: 37.3%
COc1ccc(CCNc2nc(C)nc3c2oc2ccccc23)cc1OC	inactive: 1.91%
CCOc1ccc(NC(=O)Nc2ccon2)cc1	inactive: 10.5%
O=C(Nc1nc(-c2cc(F)ccc2F)cs1)c1ccccn1	inconclusive: 49%
O=C(Cn1c(=O)oc2ccccc21)Nc1ccc(Cl)cc1Cl	inactive: -1.31%
CC(C)(C)c1ccc(S(=O)(=O)Nc2cccc(C3OCCCO3)c2)cc1	inactive: -19%
O=C(Nc1ccc(F)cc1)NC1CCCc2ccccc21 (stereo not drawn)	inconclusive: 38.3%
O=C(O)CCCN1C(=O)/C(=C/c2cn(-c3ccccc3)nc2-c2cccs2)SC1=S	inconclusive: 39.7%
COC(=O)c1cnc(Oc2ccc(NC(=O)NC(=O)c3c(F)cccc3Cl)cc2)cc1C(F)(F)F	inconclusive: 34%
O=C(Nc1cccc(NC(=O)c2ccc([N+](=O)[O-])o2)c1)c1ccco1	inconclusive: 33.5%

Reference: PubChem BioAssay AID1662 (Broad Institute, 2009)
